Results are given in words; binding and its absence hold for the method and conditions named. In cells and extracts the contact can be indirect. Some results given as binding are weak or reduced against the parent protein; the word gives no strength. Sequences can lack the tags named with a protein.

In test [1] the target is T1, KSR2-Myc (UniProt Q6VAB6).
T1 sequence: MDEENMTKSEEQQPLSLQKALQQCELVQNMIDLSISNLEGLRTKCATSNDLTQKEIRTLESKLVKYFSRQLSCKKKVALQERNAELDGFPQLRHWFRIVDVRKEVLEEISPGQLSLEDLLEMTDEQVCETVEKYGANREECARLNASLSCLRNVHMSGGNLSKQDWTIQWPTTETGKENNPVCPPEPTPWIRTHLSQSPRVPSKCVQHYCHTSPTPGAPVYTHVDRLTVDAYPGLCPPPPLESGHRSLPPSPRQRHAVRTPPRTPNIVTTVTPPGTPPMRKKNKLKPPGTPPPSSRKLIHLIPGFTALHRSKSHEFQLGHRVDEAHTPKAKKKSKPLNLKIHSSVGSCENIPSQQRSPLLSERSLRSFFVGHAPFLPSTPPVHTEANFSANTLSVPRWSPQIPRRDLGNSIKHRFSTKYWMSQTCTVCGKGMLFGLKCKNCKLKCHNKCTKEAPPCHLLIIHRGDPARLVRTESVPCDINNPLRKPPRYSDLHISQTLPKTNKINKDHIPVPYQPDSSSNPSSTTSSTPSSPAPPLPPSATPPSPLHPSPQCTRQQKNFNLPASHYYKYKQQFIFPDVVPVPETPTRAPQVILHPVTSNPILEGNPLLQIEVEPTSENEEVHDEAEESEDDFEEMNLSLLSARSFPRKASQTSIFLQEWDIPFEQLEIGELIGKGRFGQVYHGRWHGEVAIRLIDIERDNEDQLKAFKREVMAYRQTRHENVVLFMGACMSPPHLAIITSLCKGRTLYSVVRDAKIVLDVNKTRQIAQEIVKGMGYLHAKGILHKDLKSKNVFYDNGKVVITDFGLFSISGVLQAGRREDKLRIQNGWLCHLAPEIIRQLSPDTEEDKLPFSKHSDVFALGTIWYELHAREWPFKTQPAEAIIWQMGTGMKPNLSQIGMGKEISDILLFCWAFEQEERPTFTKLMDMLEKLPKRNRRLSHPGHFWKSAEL
As to the kind of experiment: co-IP; lysates of HEK293 cells transiently transfected with Myc-tagged KSR2 and Flag-praja2 vectors; immunoprecipitation with anti-Myc, blots with anti-Flag and anti-Myc; 1% Triton buffer (150 mM NaCl, 50 mM Tris-HCl pH 7.5, 1 mM EDTA, 5 mM MgCl2), overnight.

In test [2] the target is T2, GST-praja2 (UniProt O43164).
T2 sequence: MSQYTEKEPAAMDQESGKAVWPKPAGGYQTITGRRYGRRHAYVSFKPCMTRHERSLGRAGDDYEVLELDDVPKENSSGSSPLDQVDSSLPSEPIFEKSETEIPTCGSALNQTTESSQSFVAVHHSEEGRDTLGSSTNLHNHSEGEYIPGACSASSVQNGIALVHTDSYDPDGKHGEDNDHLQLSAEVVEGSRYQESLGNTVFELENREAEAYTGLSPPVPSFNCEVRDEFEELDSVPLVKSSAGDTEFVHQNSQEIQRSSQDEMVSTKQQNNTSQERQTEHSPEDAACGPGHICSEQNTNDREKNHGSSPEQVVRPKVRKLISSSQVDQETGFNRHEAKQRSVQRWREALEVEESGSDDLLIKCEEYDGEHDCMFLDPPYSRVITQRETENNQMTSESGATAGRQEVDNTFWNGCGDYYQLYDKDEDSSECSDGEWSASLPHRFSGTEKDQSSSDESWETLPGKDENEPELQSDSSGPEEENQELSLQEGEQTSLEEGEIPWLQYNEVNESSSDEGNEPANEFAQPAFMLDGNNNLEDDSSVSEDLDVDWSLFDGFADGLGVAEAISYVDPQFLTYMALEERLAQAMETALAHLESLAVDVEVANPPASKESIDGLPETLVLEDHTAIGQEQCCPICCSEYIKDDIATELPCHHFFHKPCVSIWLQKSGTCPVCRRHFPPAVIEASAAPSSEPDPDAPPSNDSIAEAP
As to the kind of experiment: pull-down; 20 μl GST-Praja2 beads with in vitro translated [35S]-KSR2 in 200 μl lysis buffer (150 mM NaCl, 50 mM Tris-HCl pH 7.5, 1 mM EDTA, 0.5% Triton X-100), 4 °C overnight; washes with 0.4 M NaCl; autoradiography; only the target purified.

The target of test [3] is T3, Flag-praja2 (UniProt O43164).
T3 sequence: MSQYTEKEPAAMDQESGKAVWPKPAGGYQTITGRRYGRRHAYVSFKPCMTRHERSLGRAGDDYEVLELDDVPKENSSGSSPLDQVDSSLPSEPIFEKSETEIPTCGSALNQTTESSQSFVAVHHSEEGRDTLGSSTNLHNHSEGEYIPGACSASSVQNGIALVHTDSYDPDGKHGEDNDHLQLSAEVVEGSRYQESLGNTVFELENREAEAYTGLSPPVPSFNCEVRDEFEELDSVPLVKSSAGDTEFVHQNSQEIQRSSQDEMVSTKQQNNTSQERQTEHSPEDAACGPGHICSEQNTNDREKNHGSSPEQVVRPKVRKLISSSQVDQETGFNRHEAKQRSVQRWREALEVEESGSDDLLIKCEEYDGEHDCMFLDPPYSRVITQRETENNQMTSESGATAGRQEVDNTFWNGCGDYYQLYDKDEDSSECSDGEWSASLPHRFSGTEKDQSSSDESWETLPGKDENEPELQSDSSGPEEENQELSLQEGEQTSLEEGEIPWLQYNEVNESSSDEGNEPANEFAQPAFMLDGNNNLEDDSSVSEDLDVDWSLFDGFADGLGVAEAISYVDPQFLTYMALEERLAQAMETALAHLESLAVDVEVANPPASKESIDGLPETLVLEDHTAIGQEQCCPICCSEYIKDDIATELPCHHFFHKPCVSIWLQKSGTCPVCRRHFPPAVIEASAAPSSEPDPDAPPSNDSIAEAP
Description: co-IP; lysates of HEK293 cells transiently expressing Flag-praja2 and KSR2-Myc; immunoprecipitation with anti-Flag; 1% Triton buffer.

B1: Flag-praja2 (enzyme, UniProt O43164 1-708)
chain: MSQYTEKEPAAMDQESGKAVWPKPAGGYQTITGRRYGRRHAYVSFKPCMTRHERSLGRAGDDYEVLELDDVPKENSSGSSPLDQVDSSLPSEPIFEKSETEIPTCGSALNQTTESSQSFVAVHHSEEGRDTLGSSTNLHNHSEGEYIPGACSASSVQNGIALVHTDSYDPDGKHGEDNDHLQLSAEVVEGSRYQESLGNTVFELENREAEAYTGLSPPVPSFNCEVRDEFEELDSVPLVKSSAGDTEFVHQNSQEIQRSSQDEMVSTKQQNNTSQERQTEHSPEDAACGPGHICSEQNTNDREKNHGSSPEQVVRPKVRKLISSSQVDQETGFNRHEAKQRSVQRWREALEVEESGSDDLLIKCEEYDGEHDCMFLDPPYSRVITQRETENNQMTSESGATAGRQEVDNTFWNGCGDYYQLYDKDEDSSECSDGEWSASLPHRFSGTEKDQSSSDESWETLPGKDENEPELQSDSSGPEEENQELSLQEGEQTSLEEGEIPWLQYNEVNESSSDEGNEPANEFAQPAFMLDGNNNLEDDSSVSEDLDVDWSLFDGFADGLGVAEAISYVDPQFLTYMALEERLAQAMETALAHLESLAVDVEVANPPASKESIDGLPETLVLEDHTAIGQEQCCPICCSEYIKDDIATELPCHHFFHKPCVSIWLQKSGTCPVCRRHFPPAVIEASAAPSSEPDPDAPPSNDSIAEAP
Take B1: the binding result in test [1] is listed as “binds”.

B2: in vitro translated, [35S]-labeled KSR2 (protein, UniProt Q6VAB6 1-950)
chain: MDEENMTKSEEQQPLSLQKALQQCELVQNMIDLSISNLEGLRTKCATSNDLTQKEIRTLESKLVKYFSRQLSCKKKVALQERNAELDGFPQLRHWFRIVDVRKEVLEEISPGQLSLEDLLEMTDEQVCETVEKYGANREECARLNASLSCLRNVHMSGGNLSKQDWTIQWPTTETGKENNPVCPPEPTPWIRTHLSQSPRVPSKCVQHYCHTSPTPGAPVYTHVDRLTVDAYPGLCPPPPLESGHRSLPPSPRQRHAVRTPPRTPNIVTTVTPPGTPPMRKKNKLKPPGTPPPSSRKLIHLIPGFTALHRSKSHEFQLGHRVDEAHTPKAKKKSKPLNLKIHSSVGSCENIPSQQRSPLLSERSLRSFFVGHAPFLPSTPPVHTEANFSANTLSVPRWSPQIPRRDLGNSIKHRFSTKYWMSQTCTVCGKGMLFGLKCKNCKLKCHNKCTKEAPPCHLLIIHRGDPARLVRTESVPCDINNPLRKPPRYSDLHISQTLPKTNKINKDHIPVPYQPDSSSNPSSTTSSTPSSPAPPLPPSATPPSPLHPSPQCTRQQKNFNLPASHYYKYKQQFIFPDVVPVPETPTRAPQVILHPVTSNPILEGNPLLQIEVEPTSENEEVHDEAEESEDDFEEMNLSLLSARSFPRKASQTSIFLQEWDIPFEQLEIGELIGKGRFGQVYHGRWHGEVAIRLIDIERDNEDQLKAFKREVMAYRQTRHENVVLFMGACMSPPHLAIITSLCKGRTLYSVVRDAKIVLDVNKTRQIAQEIVKGMGYLHAKGILHKDLKSKNVFYDNGKVVITDFGLFSISGVLQAGRREDKLRIQNGWLCHLAPEIIRQLSPDTEEDKLPFSKHSDVFALGTIWYELHAREWPFKTQPAEAIIWQMGTGMKPNLSQIGMGKEISDILLFCWAFEQEERPTFTKLMDMLEKLPKRNRRLSHPGHFWKSAEL
modifications: [35S] label
Turning to B2, the binding result in test [2] is “binds”.

B3: KSR2-Myc (protein, UniProt Q6VAB6 1-950)
chain: MDEENMTKSEEQQPLSLQKALQQCELVQNMIDLSISNLEGLRTKCATSNDLTQKEIRTLESKLVKYFSRQLSCKKKVALQERNAELDGFPQLRHWFRIVDVRKEVLEEISPGQLSLEDLLEMTDEQVCETVEKYGANREECARLNASLSCLRNVHMSGGNLSKQDWTIQWPTTETGKENNPVCPPEPTPWIRTHLSQSPRVPSKCVQHYCHTSPTPGAPVYTHVDRLTVDAYPGLCPPPPLESGHRSLPPSPRQRHAVRTPPRTPNIVTTVTPPGTPPMRKKNKLKPPGTPPPSSRKLIHLIPGFTALHRSKSHEFQLGHRVDEAHTPKAKKKSKPLNLKIHSSVGSCENIPSQQRSPLLSERSLRSFFVGHAPFLPSTPPVHTEANFSANTLSVPRWSPQIPRRDLGNSIKHRFSTKYWMSQTCTVCGKGMLFGLKCKNCKLKCHNKCTKEAPPCHLLIIHRGDPARLVRTESVPCDINNPLRKPPRYSDLHISQTLPKTNKINKDHIPVPYQPDSSSNPSSTTSSTPSSPAPPLPPSATPPSPLHPSPQCTRQQKNFNLPASHYYKYKQQFIFPDVVPVPETPTRAPQVILHPVTSNPILEGNPLLQIEVEPTSENEEVHDEAEESEDDFEEMNLSLLSARSFPRKASQTSIFLQEWDIPFEQLEIGELIGKGRFGQVYHGRWHGEVAIRLIDIERDNEDQLKAFKREVMAYRQTRHENVVLFMGACMSPPHLAIITSLCKGRTLYSVVRDAKIVLDVNKTRQIAQEIVKGMGYLHAKGILHKDLKSKNVFYDNGKVVITDFGLFSISGVLQAGRREDKLRIQNGWLCHLAPEIIRQLSPDTEEDKLPFSKHSDVFALGTIWYELHAREWPFKTQPAEAIIWQMGTGMKPNLSQIGMGKEISDILLFCWAFEQEERPTFTKLMDMLEKLPKRNRRLSHPGHFWKSAEL
For the molecule B3, the binding result in test [3] is “binds”.
